Measurements published in EP0180615B1 (priority 1984, dated 1995).
Some peptides are written in HELM: one residue between dots, names in brackets for other building blocks, links after the first $.

Experiment: general procedure: Boc solid-phase peptide synthesis; chloromethylated polystyrene resin; p-Methylbenzhydrylamine (pMBHA) resin; dicyclohexylcarbodiimide; preformed symmetrical anhydride
Details: whole synthesis, reversed phase HPLC, acetate salt

For “PEPTIDE1{R.S.S.C.F.G.G.R.I.D.R.I.G.A.Q.S.G.L.G.C.N.S.F.R.Y}$PEPTIDE1,PEPTIDE1,4:R3-20:R3$$$V2.0”, which “final HPLC purity” value is on record?
The value was “minimum 97% purity”.

For “PEPTIDE1{R.S.S.C.F.G.G.R.M.D.R.I.G.A.Q.S.G.L.G.C.N.S.F.R.Y}$PEPTIDE1,PEPTIDE1,4:R3-20:R3$$$V2.0”, which “final HPLC purity” value is on record?
The value was “minimum 97% purity”.
